From article PMC4859069 (2016)
These are yes or no findings as the source states them, for the method shown. A result given as binding can be weak or reduced; the word gives no strength. Tags and fused reporters may be left off the sequences shown. For some of these results: Binding seen in cells or lysates may run through a third protein. Each block holds one binder with its values, some of them ahead of it.

How the values were obtained:
[1] = target: Flag-14-3-3ɛ (Drosophila); assay: co-IP; S2 cells co-transfected with Flag-tagged 14-3-3 (or Flag-GFP) and V5-Tctp or V5-Rheb; CHAPS-based lysis buffer; anti-Flag on G-sepharose beads, overnight at 4 °C; blot with anti-V5
GST-14-3-3ɛ (Drosophila) = assay: pull-down; 20 μg of each MBP- and GST-tagged protein in 500 μl pull-down buffer (20 mM Tris pH 7.5, 150 mM NaCl, 0.5 mM EDTA, 10% glycerol, 0.1% Triton X-100, 1 mM DTT), overnight at 4 °C with Glutathione Excellose resin; blot with anti-MBP; both purified

B1: V5-Rheb (protein, UniProt Q9VND8 1-182)
chain: MPTKERHIAMMGYRSVGKSSLCIQFVEGQFVDSYDPTIENTFTKIERVKSQDYIVKLIDTAGQDEYSIFPVQYSMDYHGYVLVYSITSQKSFEVVKIIYEKLLDVMGKKYVPVVLVGNKIDLHQERTVSTEEGKKLAESWRAAFLETSAKQNESVGDIFHQLLILIENENGNPQEKSGCLVS
binding [1]: binds

B3: V5-Tctp (protein, UniProt Q9VGS2 1-172)
chain: MKIYKDIITGDEMFADTYKMKLVDDVIYEVYGKLITRQGDDIKLEGANASAEEADEGTDITSESGVDVVLNHRLTECFAFGDKKSYTLYLKDYMKKVLAKLEEKSPDQVDIFKTNMNKAMKDILGRFKELQFFTGESMDCDGMVALVEYREINGDSVPVLMFFKHGLEEEKC
binding [1]: binds

Next, values leading:

binding (GST-14-3-3ɛ (Drosophila)): binds
B2: MBP–Rheb (protein, UniProt Q9VND8 1-182)
chain: B1 chain

binding (GST-14-3-3ɛ (Drosophila)): binds
B4: MBP-Tctp (protein)
chain: B3 chain
